From patent US20240287483
For at least one entry, the source does not settle the construct or the ends of the probe.

Test system: Pol 37
Assay: binding assay
Settings: purified recombinant protein

Row | Sequence | binding result (faster than Pol 75, label: Pacific Blue on 5'-terminal T of template, variant of (CT)10G primer/template) | binding result (FRET extension with labeled dNTPs, 2 mM MgCl2, 60 mM NaCl, 45 C)
1 | GTTCCTGTCCACCTCC / TCAGTCTCTCTCTCTCTCTCTCTCGGAGGTGGACAGGAAC [(CT)10G primer/template, Pacific Blue] | binds | 
2 | GTTCCTGTCCACCTCC / TCAGTCTCTCTCTCTCTCTCTCTCGGAGGTGGACAGGAAC [(CT)10G primer/template] |  | binds
